Laboratory results published in paper PMC6237768.
Results are given in words; binding and its absence hold for the method and conditions named. In cells and extracts the contact can be indirect. Some binding calls cover weakened binding; strength is not graded here.

By UniProt entry, the sequences of proteins in these tests, tags left out.
UniProt Q9C035: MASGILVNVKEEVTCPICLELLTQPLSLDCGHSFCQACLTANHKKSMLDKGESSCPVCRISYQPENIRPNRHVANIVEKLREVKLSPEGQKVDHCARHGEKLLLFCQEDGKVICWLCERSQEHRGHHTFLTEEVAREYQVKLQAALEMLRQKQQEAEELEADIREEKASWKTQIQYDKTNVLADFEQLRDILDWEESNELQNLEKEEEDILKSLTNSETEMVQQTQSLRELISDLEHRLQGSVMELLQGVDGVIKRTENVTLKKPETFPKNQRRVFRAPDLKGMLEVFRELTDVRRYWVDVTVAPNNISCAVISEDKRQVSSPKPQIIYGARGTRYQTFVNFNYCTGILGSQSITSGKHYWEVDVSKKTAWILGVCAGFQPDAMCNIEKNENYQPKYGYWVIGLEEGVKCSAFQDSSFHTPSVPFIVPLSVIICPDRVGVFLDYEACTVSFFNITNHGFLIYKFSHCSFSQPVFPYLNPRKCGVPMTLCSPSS
UniProt P49792: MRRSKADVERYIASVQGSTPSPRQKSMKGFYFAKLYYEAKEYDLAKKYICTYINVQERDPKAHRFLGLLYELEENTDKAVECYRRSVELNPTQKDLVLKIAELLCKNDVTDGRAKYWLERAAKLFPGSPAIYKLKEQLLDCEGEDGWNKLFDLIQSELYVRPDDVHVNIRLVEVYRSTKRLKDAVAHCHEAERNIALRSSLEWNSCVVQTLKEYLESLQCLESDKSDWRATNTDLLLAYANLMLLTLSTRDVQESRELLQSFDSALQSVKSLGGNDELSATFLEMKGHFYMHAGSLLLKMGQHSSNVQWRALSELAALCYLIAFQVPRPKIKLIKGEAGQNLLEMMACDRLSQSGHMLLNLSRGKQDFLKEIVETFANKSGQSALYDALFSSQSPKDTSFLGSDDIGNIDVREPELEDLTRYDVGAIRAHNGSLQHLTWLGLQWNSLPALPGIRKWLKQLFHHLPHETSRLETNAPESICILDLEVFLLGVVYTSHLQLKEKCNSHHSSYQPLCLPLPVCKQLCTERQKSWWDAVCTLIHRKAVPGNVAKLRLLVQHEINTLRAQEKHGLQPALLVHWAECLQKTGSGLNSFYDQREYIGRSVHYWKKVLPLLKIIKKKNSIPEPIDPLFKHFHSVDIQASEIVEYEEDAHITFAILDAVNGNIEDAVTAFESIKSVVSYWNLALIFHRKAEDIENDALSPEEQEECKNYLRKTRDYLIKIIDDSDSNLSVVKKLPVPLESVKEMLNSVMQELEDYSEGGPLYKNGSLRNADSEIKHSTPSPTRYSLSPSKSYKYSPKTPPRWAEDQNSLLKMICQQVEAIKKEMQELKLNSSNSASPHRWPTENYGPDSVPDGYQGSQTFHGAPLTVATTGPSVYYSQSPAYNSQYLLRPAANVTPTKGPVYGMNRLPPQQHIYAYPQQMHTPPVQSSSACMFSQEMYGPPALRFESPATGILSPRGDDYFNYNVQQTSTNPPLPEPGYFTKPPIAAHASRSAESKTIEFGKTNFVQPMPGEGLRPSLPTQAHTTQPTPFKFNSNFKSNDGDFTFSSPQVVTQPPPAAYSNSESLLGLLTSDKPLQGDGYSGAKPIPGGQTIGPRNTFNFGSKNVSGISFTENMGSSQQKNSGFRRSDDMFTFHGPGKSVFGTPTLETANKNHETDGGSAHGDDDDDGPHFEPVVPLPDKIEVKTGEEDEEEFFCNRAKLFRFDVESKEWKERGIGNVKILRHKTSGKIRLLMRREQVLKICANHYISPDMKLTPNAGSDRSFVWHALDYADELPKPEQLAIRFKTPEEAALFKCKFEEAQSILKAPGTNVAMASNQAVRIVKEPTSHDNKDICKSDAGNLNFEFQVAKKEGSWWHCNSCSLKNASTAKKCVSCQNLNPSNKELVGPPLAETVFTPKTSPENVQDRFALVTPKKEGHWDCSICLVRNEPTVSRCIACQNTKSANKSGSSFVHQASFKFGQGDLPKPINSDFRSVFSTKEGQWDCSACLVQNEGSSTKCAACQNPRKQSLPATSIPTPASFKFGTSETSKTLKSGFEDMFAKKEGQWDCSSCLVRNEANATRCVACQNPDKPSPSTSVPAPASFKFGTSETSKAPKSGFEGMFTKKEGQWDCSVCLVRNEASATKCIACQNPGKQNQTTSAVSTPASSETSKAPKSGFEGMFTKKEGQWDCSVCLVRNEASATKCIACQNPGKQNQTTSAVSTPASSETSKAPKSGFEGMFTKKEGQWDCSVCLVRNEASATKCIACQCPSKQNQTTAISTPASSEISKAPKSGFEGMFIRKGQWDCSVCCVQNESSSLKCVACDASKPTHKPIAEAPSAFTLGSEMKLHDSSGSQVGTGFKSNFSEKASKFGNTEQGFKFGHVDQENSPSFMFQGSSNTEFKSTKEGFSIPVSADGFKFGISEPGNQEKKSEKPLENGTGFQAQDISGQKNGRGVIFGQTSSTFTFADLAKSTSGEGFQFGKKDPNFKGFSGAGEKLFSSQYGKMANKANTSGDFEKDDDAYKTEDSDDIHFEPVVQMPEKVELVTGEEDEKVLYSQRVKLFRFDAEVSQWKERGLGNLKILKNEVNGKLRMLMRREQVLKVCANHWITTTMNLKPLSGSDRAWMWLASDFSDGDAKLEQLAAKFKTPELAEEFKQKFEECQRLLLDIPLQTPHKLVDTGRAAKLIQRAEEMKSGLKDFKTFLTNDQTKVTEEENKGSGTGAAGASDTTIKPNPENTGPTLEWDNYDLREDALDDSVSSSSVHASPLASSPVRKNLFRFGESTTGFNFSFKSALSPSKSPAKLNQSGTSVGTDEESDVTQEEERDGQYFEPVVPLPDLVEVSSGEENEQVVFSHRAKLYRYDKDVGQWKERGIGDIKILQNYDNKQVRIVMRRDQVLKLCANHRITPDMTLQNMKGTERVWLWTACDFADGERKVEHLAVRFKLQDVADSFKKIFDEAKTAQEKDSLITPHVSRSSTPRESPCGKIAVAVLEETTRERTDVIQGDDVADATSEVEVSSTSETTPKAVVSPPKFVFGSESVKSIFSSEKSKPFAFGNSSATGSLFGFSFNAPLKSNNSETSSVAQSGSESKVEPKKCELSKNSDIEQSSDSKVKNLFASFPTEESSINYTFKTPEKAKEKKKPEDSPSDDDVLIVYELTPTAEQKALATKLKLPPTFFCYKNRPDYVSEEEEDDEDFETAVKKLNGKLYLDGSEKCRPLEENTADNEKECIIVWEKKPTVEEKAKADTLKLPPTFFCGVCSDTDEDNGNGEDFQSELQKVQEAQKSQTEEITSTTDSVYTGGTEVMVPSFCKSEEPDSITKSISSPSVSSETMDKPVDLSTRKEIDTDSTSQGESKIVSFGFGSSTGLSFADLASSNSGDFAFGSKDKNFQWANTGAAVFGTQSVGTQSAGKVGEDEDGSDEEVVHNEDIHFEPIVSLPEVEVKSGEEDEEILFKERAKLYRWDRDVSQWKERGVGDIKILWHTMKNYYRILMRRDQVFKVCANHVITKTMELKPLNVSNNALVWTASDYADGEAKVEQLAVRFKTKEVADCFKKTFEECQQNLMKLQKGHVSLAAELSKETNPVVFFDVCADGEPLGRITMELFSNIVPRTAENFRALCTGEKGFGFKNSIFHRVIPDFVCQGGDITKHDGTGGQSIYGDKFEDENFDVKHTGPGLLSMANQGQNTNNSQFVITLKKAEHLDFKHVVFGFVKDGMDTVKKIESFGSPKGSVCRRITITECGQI

What was measured:
[1] = target: T1, Ran-specific GTPase activating protein RanGAP1 (human (endogenous in HeLa and HEK 293T)) (UniProt P46060); assay: co-IP; endogenous RanGAP1 immunoprecipitated (goat α-RanGAP1, protein G sepharose, overnight 4 °C) from HeLa cytosolic extracts with 20 mM NEM; non-transduced, shE or shBP2 transduced cells; blotted for RanBP2, Ubc9, TRIM5α, SUMO1
T1 sequence: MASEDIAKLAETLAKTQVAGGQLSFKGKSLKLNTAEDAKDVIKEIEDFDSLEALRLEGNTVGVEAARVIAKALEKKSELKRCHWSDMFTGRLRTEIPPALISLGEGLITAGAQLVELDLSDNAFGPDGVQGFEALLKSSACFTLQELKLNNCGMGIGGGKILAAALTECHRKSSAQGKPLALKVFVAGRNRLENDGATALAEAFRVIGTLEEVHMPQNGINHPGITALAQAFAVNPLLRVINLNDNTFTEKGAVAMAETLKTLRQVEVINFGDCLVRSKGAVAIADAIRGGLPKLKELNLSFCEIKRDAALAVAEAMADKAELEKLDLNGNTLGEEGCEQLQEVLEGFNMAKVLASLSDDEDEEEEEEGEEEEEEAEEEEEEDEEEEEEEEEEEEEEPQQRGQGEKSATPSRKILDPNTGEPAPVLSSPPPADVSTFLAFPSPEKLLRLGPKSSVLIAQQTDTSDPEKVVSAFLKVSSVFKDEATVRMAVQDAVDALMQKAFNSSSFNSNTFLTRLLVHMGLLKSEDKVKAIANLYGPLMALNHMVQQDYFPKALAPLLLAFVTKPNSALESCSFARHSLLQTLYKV

[2] = target: TRIM5α (alpha isoform of the tripartite motif-containing protein 5), unmodified 55 kDa species (human (endogenous in HeLa and HEK 293T)) (UniProt Q9C035); assay: co-IP; endogenous TRIM5α immunoprecipitated (rabbit α-TRIM5α, protein G sepharose, overnight 4 °C) from HeLa whole cell lysates with 20 mM NEM; non-transduced, shE, shBP2 or shTRIM5α transduced cells; blotted for RanBP2

| binding [1] | binding [2] | Substance |
| --- | --- | --- |
| binds | – | TRIM5α (alpha isoform of the tripartite motif-containing protein 5), unmodified 55 kDa species (from UniProt Q9C035 1-493) |
| – | binds | RanBP2 (Nup358), nucleoporin and E3 SUMO ligase (from UniProt P49792 1-3224) |
